Taken from: PubChem BioAssay AID1259425 (University of Nebraska Medical Center, 2018)
Test: 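Seek colon cancer weak points whose silencing resembles KSR1 loss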 (primary screen). Cells: HCT116 human colon cancer cells. Reagents: siRNA pool against human genes, 50 nM siRNA. Detection: 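mRNA of six signature genes measured together by branched-DNA assay after 50 nM siRNA pool, blank removed, divided by geometric mean of two housekeeping genes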. Scale: BNIP3L mRNA: higher = more BNIP3L transcript after knockdown; NDRG1 mRNA: higher = more NDRG1 transcript after knockdown.
The whole screen tested about 14,000 reagents; below is a random part of them. Not all columns of the deposit are shown. Reagent sequences are not shown. The record does not give: the time to read-out.

SAGE1
- BNIP3L mRNA, set 1: 0.111
- NDRG1 mRNA, set 1: 0.0765

BRAF
- BNIP3L mRNA, set 1: 0.109
- NDRG1 mRNA, set 1: 0.203

CCSER1
- BNIP3L mRNA, set 1: 0.17
- NDRG1 mRNA, set 1: 0.326

GMEB2
- BNIP3L mRNA, set 1: 0.164
- NDRG1 mRNA, set 1: 0.156

2 entries from above, set out differently:
gene symbol,"BNIP3L mRNA, set 1","NDRG1 mRNA, set 1"
CCSER1,0.17,0.326
GMEB2,0.164,0.156

The list goes on.
COMMD9
- BNIP3L mRNA, set 1: 0.0628
- NDRG1 mRNA, set 1: 0.0355

STK11IP
- BNIP3L mRNA, set 1: 0.158
- NDRG1 mRNA, set 1: 0.119

NEUROD6
- BNIP3L mRNA, set 1: 0.0639
- NDRG1 mRNA, set 1: 0.133

KDR
- BNIP3L mRNA, set 1: 0.179
- NDRG1 mRNA, set 1: 0.113

NMBR
- BNIP3L mRNA, set 1: 0.152
- NDRG1 mRNA, set 1: 0.139

MIS12
- BNIP3L mRNA, set 1: 0.196
- NDRG1 mRNA, set 1: 0.152

KIF2C
- BNIP3L mRNA, set 1: 0.11
- NDRG1 mRNA, set 1: 0.244

GLDC
- BNIP3L mRNA, set 1: 0.0818
- NDRG1 mRNA, set 1: 0.115
